Patent US20260116957A1, “PHARMACEUTICAL COMPOSITION FOR AMELIORATING ACUTE LUNG INJURY AND ACUTE WORSENING OF PULMONARY FIBROSIS” (priority 2021, published 2026)
No constants are given. Whether binding was seen depends on the method and setting. Binding calls can cover weak binding; strength is not graded here. Blank lines part the entries; values can stand above or below the binder they belong to.

Tests used:
[1] = target: recombinant transglycosylase 351 (Staphylococcus nepalensis strain CNDG); assay: Western blot of transglycosylase 351 (FIG. 11b)
[2] = target: recombinant transglycosylase 351 (Staphylococcus nepalensis strain CNDG); assay: Western blot of increasing amounts of recombinant transglycosylase 351, hybridoma supernatant 1:1000

binding [1]: binds
binding [2]: binds
B1: Anticorisin monoclonal antibody clone 2A (antibody, V domains shown)
VH: EVKLVESGGGLVQPGNSLTLSCVASGFTFTNYGMHWIRQAPKKGLEWIAMIYYDSSKMSYADTVKGRFTISRDNSKNTLYLEMNSLRSEDTAMYYCAAEGFGTPFPYWGQGTLVTVSS
VL: DIVMTQTPSSRAVSAGEKVTMSCKSSQSLLYSENEKNYLAWYQQRPGQSPKLLIYWASTRESGVPDRFIGTGSGTDFTLTISSVQAEDLAVYYCQQYYHFPRTFGGGTRLELK

binding [1]: binds
binding [2]: binds
B2: Anticorisin monoclonal antibody clone 4A (antibody, V domains shown)
VH: EVQVLESGGGLVQPGNSLKLSCATSGFTFSTAWMYWYRQFPEKRLEWVARIKAKSNSYATDYTESVKGRFTISRDDSKGSIYLRMNNLKEEDTAIYYCASTDAFYFSHSYWGQGVLVTVSS
VL: DIVMTQTPSSQAVSAGEKVTMRCRSSQSLLYSENKKNYLAWYQQKPGRSPKLLIYWASTGESGVPDRFIGSGSGTDFTLTISSVQAEDLAVYYCQQYYNFPLTFGSGTKLEIK
